No constants are given. Whether binding was seen depends on the method and setting. For some assays here: In cells and extracts the contact can be indirect. Some entries that bind do so weakly or less than the wild type. For some assays here: Where a sequence is shown, tags or fusion partners need not be part of it.
Columns and labels:
Pep8 (human) = target: T1, Pep8 (human); experiment: pull-down; peptides conjugated to TentaGel resins, eIF4E detected by immunoblot; conditions not given
T1 sequence (peptide, conjugated to TentaGel resin): YPYAASPA

Amino acid sequences for entries named in this document (tags omitted).
UniProt P06730: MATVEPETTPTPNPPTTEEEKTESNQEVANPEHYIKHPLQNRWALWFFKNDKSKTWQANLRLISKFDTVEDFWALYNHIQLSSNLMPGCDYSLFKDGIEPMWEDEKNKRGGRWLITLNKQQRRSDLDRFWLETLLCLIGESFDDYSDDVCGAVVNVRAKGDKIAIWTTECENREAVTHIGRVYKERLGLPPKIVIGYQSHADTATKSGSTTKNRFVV

GST-RBM38 = target: T2, GST-RBM38 (UniProt Q9H0Z9); experiment: pull-down; competitive: GST-RBM38 on GST beads, 250 µg purified eIF4E and 10 µM peptide in lysis buffer (50 mM Tris pH 7.5, 150 mM NaCl, 0.1% Triton X-100), rocked overnight, washed 3x, western blot; both purified
T2 sequence: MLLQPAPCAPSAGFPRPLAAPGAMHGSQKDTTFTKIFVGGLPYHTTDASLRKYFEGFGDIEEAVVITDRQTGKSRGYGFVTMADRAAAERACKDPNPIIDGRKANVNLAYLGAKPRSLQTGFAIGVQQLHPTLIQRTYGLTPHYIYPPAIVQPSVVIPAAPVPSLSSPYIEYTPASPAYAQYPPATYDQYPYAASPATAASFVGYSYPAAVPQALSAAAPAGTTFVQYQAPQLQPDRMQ

Row | binding (Pep8 (human)) | binding (GST-RBM38) | Substance
1 | binds | – | eIF4E (in the pull-down with TentaGel-bound peptides) (from UniProt P06730 1-217)
2 | – | binds | eIF4E (purified, from pTXB1-eIF4E) (from UniProt P06730 1-217)

— article PMC9095979, “Optimization of eIF4E-Binding Peptide Pep8 to Disrupt the RBM38-eIF4E Complex for Induction of p53 and Tumor Suppression” (Frontiers in Oncology, 2022)
